Test results taken from article PMC2567969.
These are yes or no findings as the source states them, for the method shown. For part of these data: In cells and extracts the contact can be indirect. For part of these data: A result given as binding can be weak or reduced; the word gives no strength. Tags and fused reporters may be left off the sequences shown.

Assays:
[1] = target: GFP::Ik2 expressed in the fly germline (Drosophila); test: co-IP; ovarian extract of transgenic flies expressing GFP-Ik2 and HA-Spn-F in the germline; lysis with 1% NP-40; IP with anti-GFP and protein A-coated beads; western blot with anti-HA; control ovaries expressing HA-Spn-F alone
[2] = target: Kinase dead Ik2, Ik2 [K41A]-Myc (Drosophila); test: co-IP; S2 cells co-transfected; lysis in PBS, 1% Triton X-100, protease inhibitors; IP overnight at 4°C with anti-GFP or anti-myc and protein A-coated beads; western blot with anti-HA or anti-myc; control beads without antibody
Sec13-MBP = test: SPR; ProteOn XPR36, GLC chip; Ik2-MBPHis (1400 RU) and Sec13-MBP (5500 RU) amine-coupled; Spn-F injected at six concentrations 0.1625 to 5 μM; PBS pH 7.4, 0.005% Tween 20, 25°C; global fit to 1:1 Langmuir model; both purified

B1: HA::Spn-F expressed in the fly germline (protein, UniProt Q9V9Y9 1-364)
chain: MEASAAKITPMASSMSASGSTNSPSSEKMNYALQVALQTIKERCIQLQRRVASMEEENQQLREASSRSEGAPRANEIGVTGDVLSLKAQVSELQRQKEQLEEHIGMVSNENRRLWSRLSQISKDQQLNALPSSTDSRAQQNQNLVRSKTFTQHSPNPHLRQKMLSDGIKDLSLEEIALDDFGASSEELGYPYNLQKVEETTSEPDANVDAKRCLDGLQELRREAMKQQQELRSVMTLLENRIALKPCPECAQKTIKKPEMADKSLETDDSLTSELKNYESQHNGHNGTPPSQRINIIQEKIKADAADAMEKTCPMCGKQYSSQVSFNAFREHVEMHFIDDALELESENSIERQFEFVSHAVGDF
In the case of B1, the binding [1] is reported as “binds”.

B2: HA-tagged Spindle-F (Spn-F), expressed in S2 cells (protein, UniProt Q9V9Y9 1-364)
chain: MEASAAKITPMASSMSASGSTNSPSSEKMNYALQVALQTIKERCIQLQRRVASMEEENQQLREASSRSEGAPRANEIGVTGDVLSLKAQVSELQRQKEQLEEHIGMVSNENRRLWSRLSQISKDQQLNALPSSTDSRAQQNQNLVRSKTFTQHSPNPHLRQKMLSDGIKDLSLEEIALDDFGASSEELGYPYNLQKVEETTSEPDANVDAKRCLDGLQELRREAMKQQQELRSVMTLLENRIALKPCPECAQKTIKKPEMADKSLETDDSLTSELKNYESQHNGHNGTPPSQRINIIQEKIKADAADAMEKTCPMCGKQYSSQVSFNAFREHVEMHFIDDALELESENSIERQFEFVSHAVGDF
B2 was tested, and the binding [2] was “binds”.

B3: Spn-F, recombinant, MBP-His6 tag cleaved (protein, UniProt Q9V9Y9 1-364)
chain: MEASAAKITPMASSMSASGSTNSPSSEKMNYALQVALQTIKERCIQLQRRVASMEEENQQLREASSRSEGAPRANEIGVTGDVLSLKAQVSELQRQKEQLEEHIGMVSNENRRLWSRLSQISKDQQLNALPSSTDSRAQQNQNLVRSKTFTQHSPNPHLRQKMLSDGIKDLSLEEIALDDFGASSEELGYPYNLQKVEETTSEPDANVDAKRCLDGLQELRREAMKQQQELRSVMTLLENRIALKPCPECAQKTIKKPEMADKSLETDDSLTSELKNYESQHNGHNGTPPSQRINIIQEKIKADAADAMEKTCPMCGKQYSSQVSFNAFREHVEMHFIDDALELESENSIERQFEFVSHAVGDF
In the case of B3, the binding (Sec13-MBP) is reported as “no binding (tested: 5 μM)”.
